Measured data: PubChem BioAssay AID504784 (Drosophila RNAi Screening Center, 2011)
Screen: 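Fly genes whose silencing alters how much lipid cells keep in droplets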 (primary screen). Cells: Drosophila Kc167 embryonic cells. Knock-down reagent: long dsRNA against Drosophila genes, about 250 ng dsRNA per well. Time to read-out: 4 days. Challenge: cells fed 400 µM oleic acid bound to BSA. Measured: 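Microscope images give a droplet-to-nucleus area ratio, taken as log and converted to a screen-wide B-score; higher values mean greater lipid storage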. Scale: droplet/nuclear area B-score: higher = more stored lipid (overstorage).
The screen tested about 17,000 reagents; below is an unselected part of those that have a named target and a result. 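Each column is one replicate's B-score; the combined score over replicates was not deposited, so single values may mislead.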 Reagents against one gene are numbered here. A plus sign joins genes that one reagent is predicted to hit. Further read-outs or replicates are left out here. No sequences are given here.

| gene knocked down | reagent | droplet/nuclear area B-score, replicate 1 | droplet/nuclear area B-score, replicate 2 |
| --- | --- | --- | --- |
| dup | 1 | -0.0409 | -0.446 |
| GluRIIA | 1 | 0.437 | -1.42 |
| Osi14 | 1 | -1.88 | -2.05 |
| CG31441 | 1 | 1.01 | -0.387 |
| CG33521 | 1 | 0.0526 | -0.21 |
| CG33521 | 2 | -0.237 | -1.36 |
| CG13403 | 1 | -1.12 | -1.1 |
| Ets97D | 1 | 1.35 | 2.12 |
| grk | 1 | -0.19 | 0.0334 |
| PolD3 | 1 | -0.698 | -0.232 |
| Klp67A | 1 | -0.743 | 0.00637 |
| CG32444 | 1 | 1.28 | 0.228 |
| Vps13 | 1 | -0.18 | -0.721 |
| Act87E | 1 | 0.803 | 1.83 |
| Cpsf100 | 1 | 0.614 | – |
| CG11951 | 1 | 0.348 | 0.997 |
| CG15382 | 1 | -0.299 | 0.463 |
| blo | 1 | -0.226 | 2.19 |
| nsr | 1 | -0.00476 | 1.18 |
| nsr | 2 | -0.219 | -1.55 |
| RpL12 | 1 | 7.69 | 9.76 |
| PEK | 1 | 1.23 | -0.00171 |
| Nacalpha | 1 | 3.36 | 2.67 |
| Abi | 1 | 8.93 | 0.041 |
| CG4229 | 1 | -0.0599 | 0.434 |
| Rdl | 1 | 0.223 | 0.484 |
| CG8854 | 1 | -0.883 | -0.539 |
| CG4455 | 1 | -0.275 | -1.22 |
| CG4455 | 2 | 1.14 | 1.43 |
| CG14341 | 1 | -1.6 | 0.0752 |
| CG5664 | 1 | -0.00855 | 0.684 |
| CG5565 | 1 | 1.26 | -1.06 |
| Smyd4-4 | 1 | -2.38 | -2.94 |
| CG14017 | 1 | -1.32 | -0.116 |
| Obp8a | 1 | -1.27 | -0.0427 |
| ms(3)K81 | 1 | 0.0892 | -1.76 |
| CG33992 (retired record) + CG43755 | 1 | 0.0777 | 0.429 |
| Rbpn-5 | 1 | 0.553 | 1.81 |
| CG17292 | 1 | -0.392 | -0.306 |
| san | 1 | 0.705 | 2.01 |

A stretch taken from the entries so far, as a working copy:
| gene knocked down | reagent | droplet/nuclear area B-score, replicate 1 | droplet/nuclear area B-score, replicate 2 |
| --- | --- | --- | --- |
| Vps13 | 1 | -0.18 | -0.721 |
| Act87E | 1 | 0.803 | 1.83 |
| Cpsf100 | 1 | 0.614 | – |
| CG11951 | 1 | 0.348 | 0.997 |
| CG15382 | 1 | -0.299 | 0.463 |
| blo | 1 | -0.226 | 2.19 |
| nsr | 1 | -0.00476 | 1.18 |

The list goes on.
| gene knocked down | reagent | droplet/nuclear area B-score, replicate 1 | droplet/nuclear area B-score, replicate 2 |
| --- | --- | --- | --- |
| Klp10A | 1 | 1.19 | 0.201 |
| disp | 1 | 3.28 | 2.64 |
| exu | 1 | -0.883 | -0.593 |
| Sid | 1 | 1.34 | 2.4 |
| Cyp6d2 | 1 | 0.577 | -1.21 |
| CG33095 | 1 | -0.735 | -1.07 |
| CanA-14F | 1 | -0.7 | -1.67 |
| CanA-14F | 2 | -1.35 | -0.0741 |
| TFAM | 1 | 0.0432 | 0.427 |
| CG17930 | 1 | -0.546 | -4.07 |
| Ret | 1 | 1.68 | 0.728 |
| Ret | 2 | 1.28 | 0.694 |
| eIF4EHP | 1 | 1.12 | 1.86 |
| eIF4EHP | 2 | -0.562 | -1.83 |
| bmm | 1 | 4.65 | 4.73 |
| CG6048 | 1 | 0.0405 | 0.907 |
| Npc1b | 1 | 1.75 | 1.4 |
| AdoR | 1 | 0.0592 | 2.1 |
| CG13599 | 1 | 0.868 | 2.2 |
| CG3036 | 1 | -1.05 | 1.43 |
| CG3036 | 2 | -0.199 | -1 |
| snRNA:U1:95Cc | 1 | -2.58 | -3.11 |
| ms(3)76Ba | 1 | -0.984 | 0.159 |
| CG4404 | 1 | 0.675 | 0.242 |
| PIG-N | 1 | 0.71 | -0.473 |
| NetB | 1 | 2.65 | 2.19 |
| Sf3b1 | 1 | 0.0195 | -2.69 |
| CG3557 | 1 | 0.325 | 1.86 |
| spt4 | 1 | -0.595 | -0.523 |
| mms4 | 1 | -1.22 | 0.733 |
| Prp3 | 1 | 0.225 | -1.92 |
| nod | 1 | 0.259 | 0.838 |
| nod | 2 | 1.48 | 0.0601 |
| PGAP2 | 1 | 1.56 | 0.726 |
| CG7974 | 1 | -0.791 | 0.44 |
| CtBP | 1 | 0.54 | 1.86 |
| CG17140 + CG17139 | 1 | -0.452 | 0.0266 |
| CG17140 + CG17139 | 2 | -0.198 | -0.338 |
| CG10993 | 1 | 0.812 | 1.05 |
| CG32835 (retired record) | 1 | -1.72 | 2.38 |
| CG32695 | 1 | 0.155 | -0.823 |
| capu | 1 | -0.0145 | -1.27 |
| capu | 2 | -0.687 | 1.06 |
